According to the supplement of paper PMC4858399:

How the values were obtained:
[1] = test system: Caenorhabditis elegans N2; assay: lowest effective concentration for larval growth inhibition (size below effect threshold); higher = less potent; settings: exposure time 48 h
In short: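 Worm size was taken as per-worm extinction on the Biosort, log-transformed and turned into well means. The larvae (C. elegans N2, L1 stage, 50 per 96-well) had spent 48 h at 20°C in K-medium with killed bacteria, 1% DMSO and 0.5, 1, 5, 10, 50, 100 or 200 µM chemical. The lowest effective concentration marks the first dose where the plate-adjusted mean size drops under a cutoff and remains under it at every higher dose; the cutoff is 5.665.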

[2] = test system: Caenorhabditis elegans N2; assay: mean nematode size ln(EXT) after 48 h, plate-adjusted (DMSO control set to 6) (ln(EXT), control-adjusted); higher = larger nematodes / less growth inhibition; settings: exposure time 48 h
In short: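 Synchronised C. elegans N2 L1 larvae (50 per well, 4–6 wells per treatment) were grown for 48 h at 20°C in K-medium with killed OP50, 1% DMSO and 0.5–200 µM chemical. The Biosort measured each worm's extinction, and debris was removed by a growth model. Values were natural-logged and averaged per well. Mean size was then plate-adjusted by subtracting the vehicle control mean and adding 6.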

CCCCCCCCc1ccc(O)cc1 [4-Octylphenol]
Settings	lowest effective concentration [µM]
[1]	50

[2]
Settings	mean nematode size ln(EXT) (ln)
0.5 µM	5.89
1 µM	5.9
5 µM	5.76
10 µM	5.7
50 µM	3.75
100 µM	3.92
200 µM	3.84
